This is one part of the list. Repeats are few or missing, and single values can be far off.
Test system: Saccharomyces cerevisiae BY4743
Experiment: growth (OD600) with compound + IPBC relative to untreated control; higher = less growth inhibition
Conditions: compound concentration: 133 uM; IPBC concentration: 0.5 ug/ml; 20 h
Protocol: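 NMCCC compounds (133 uM) combined with IPBC (0.5 ug/ml) against Saccharomyces cerevisiae BY4743 in YPD, 96-well plates. Growth was read as OD600 at 20 h and expressed as % of the untreated control. Single pass.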

Row | SMILES | growth [%]
1 | CCCOc1ccc(CN(C(=O)c2nc(SC)ncc2Cl)C2CCS(=O)(=O)C2)cc1 (stereo unspecified) + CCCCNC(=O)OCC#CI [3-iodo-2-propynyl butylcarbamate (IPBC)] | 97.7
2 | NC(=O)Nc1cccc(C(=O)N2CCOc3ccccc32)c1 + CCCCNC(=O)OCC#CI [3-iodo-2-propynyl butylcarbamate (IPBC)] | 103
3 | Cc1nc(C)c(CCC(=O)Nc2ccnn2Cc2ccc(C(F)(F)F)cc2)c(O)n1 + CCCCNC(=O)OCC#CI [3-iodo-2-propynyl butylcarbamate (IPBC)] | 116
4 | Oc1nc2ccccc2nc1SCc1ccon1 + CCCCNC(=O)OCC#CI [3-iodo-2-propynyl butylcarbamate (IPBC)] | 103
5 | CC(C)CCNC(=O)c1cnn2c(C(F)(F)F)cc(-c3cccs3)nc12 + CCCCNC(=O)OCC#CI [3-iodo-2-propynyl butylcarbamate (IPBC)] | 84.4
6 | CCOC(=O)c1c(C)n(C)c2ccc(O)c(S(=O)(=O)c3ccc(OC)cc3)c12 + CCCCNC(=O)OCC#CI [3-iodo-2-propynyl butylcarbamate (IPBC)] | 89.1
7 | CC1(CC[S](=O)(=O)C1)NC(=O)C/2=N/N(CC3=CC=CC=C3)C(=O)/C=C2 (stereo unspecified) + CCCCNC(=O)OCC#CI [3-iodo-2-propynyl butylcarbamate (IPBC)] | 92.9
8 | Cn1cccc1Cc1nnc(SCC(N)=O)n1-c1ccc(Cl)cc1 + CCCCNC(=O)OCC#CI [3-iodo-2-propynyl butylcarbamate (IPBC)] | 97.8
9 | COc1cccc(C(=O)Oc2c(S(=O)(=O)c3ccccc3)c(C)nn2C(C)(C)C)c1OC + CCCCNC(=O)OCC#CI [3-iodo-2-propynyl butylcarbamate (IPBC)] | 93.2
10 | CCCN(C(=O)C(=O)c1c(C)n(C)c2ccccc12)c1ccc(F)cc1 + CCCCNC(=O)OCC#CI [3-iodo-2-propynyl butylcarbamate (IPBC)] | 88.9
11 | CC(C(=O)[O-])n1c(Br)nc2c1c(=O)[nH]c(=O)n2C (stereo unspecified) + CCCCNC(=O)OCC#CI [3-iodo-2-propynyl butylcarbamate (IPBC)] | 96.4
12 | COC(=O)C(CC(C)C)NC(=O)c1ccc(S(=O)(=O)N2CCc3ccccc3C2)cc1 (stereo unspecified) + CCCCNC(=O)OCC#CI [3-iodo-2-propynyl butylcarbamate (IPBC)] | 99.5
13 | O=C(CCNc1nc(Cl)nc2nc[nH]c12)NCCc1c[nH]cn1 + CCCCNC(=O)OCC#CI [3-iodo-2-propynyl butylcarbamate (IPBC)] | 104
14 | Cc1nn(Cn2cc(Cl)cn2)c(C)c1NC(=O)c1ccc(Cl)cc1 + CCCCNC(=O)OCC#CI [3-iodo-2-propynyl butylcarbamate (IPBC)] | 103
15 | CCSC1(SCC)\N=C(\N)C2(C#N)C(N\C(=C(\C)C12C#N)C)C3=CC=CC=C3 (stereo unspecified) + CCCCNC(=O)OCC#CI [3-iodo-2-propynyl butylcarbamate (IPBC)] | 95.7
16 | COC1=CC=C(C=C1OC)C(=O)N2CCN(CC2)C/3=C(\Cl)C(=O)N(C)/N=C3 + CCCCNC(=O)OCC#CI [3-iodo-2-propynyl butylcarbamate (IPBC)] | 92.2
17 | Cc1cc(C(F)(F)F)c2c(C#N)cn(-c3cnn(C)c3)c2n1 + CCCCNC(=O)OCC#CI [3-iodo-2-propynyl butylcarbamate (IPBC)] | 102
18 | Cc1ccc(Cl)cc1N1C(=O)N(C)c2ccccc2S1(=O)=O + CCCCNC(=O)OCC#CI [3-iodo-2-propynyl butylcarbamate (IPBC)] | 94.2
19 | CC(=O)Nc1c(C)noc1/C=C\c1ccc(C)c(S(=O)(=O)NC2CCCC2)c1 + CCCCNC(=O)OCC#CI [3-iodo-2-propynyl butylcarbamate (IPBC)] | 98.2
20 | Cc1cccc(N2CCN(S(=O)(=O)c3cc(Br)cnc3N)CC2)c1C + CCCCNC(=O)OCC#CI [3-iodo-2-propynyl butylcarbamate (IPBC)] | 89
21 | CN1C(=O)N(C)\C(=C(C#N)/C1=O)OC2=CC=CC3=C2OC(C)(C)C3 + CCCCNC(=O)OCC#CI [3-iodo-2-propynyl butylcarbamate (IPBC)] | 102
22 | CCOc1ccc(N2C(=O)CCS2(=O)=O)cc1S(=O)(=O)N(Cc1ccccc1)C(C)C + CCCCNC(=O)OCC#CI [3-iodo-2-propynyl butylcarbamate (IPBC)] | 78.6
23 | COC1=CC=CC=C1NC(=O)CS\C2=N\C(=C/C(=O)N2C3=CC=CC=C3OC)O + CCCCNC(=O)OCC#CI [3-iodo-2-propynyl butylcarbamate (IPBC)] | 92.4

Three records drawn at random from the list so far:
Row | SMILES | growth [%]
11 | CC(C(=O)[O-])n1c(Br)nc2c1c(=O)[nH]c(=O)n2C (stereo unspecified) + CCCCNC(=O)OCC#CI [3-iodo-2-propynyl butylcarbamate (IPBC)] | 96.4
13 | O=C(CCNc1nc(Cl)nc2nc[nH]c12)NCCc1c[nH]cn1 + CCCCNC(=O)OCC#CI [3-iodo-2-propynyl butylcarbamate (IPBC)] | 104
3 | Cc1nc(C)c(CCC(=O)Nc2ccnn2Cc2ccc(C(F)(F)F)cc2)c(O)n1 + CCCCNC(=O)OCC#CI [3-iodo-2-propynyl butylcarbamate (IPBC)] | 116

(list continues)

Row | SMILES | growth [%]
24 | COc1ccc(-c2nc(C(=O)OCC(=O)Nc3sccc3C(N)=O)cs2)cc1OC + CCCCNC(=O)OCC#CI [3-iodo-2-propynyl butylcarbamate (IPBC)] | 98.5
25 | CC1CN(S(=O)(=O)c2cccc(C(=O)OCCc3ccccc3)c2)CC(C)O1 (stereo unspecified) + CCCCNC(=O)OCC#CI [3-iodo-2-propynyl butylcarbamate (IPBC)] | 89.9
26 | Cc1c(C(=O)Nc2ccc(C(=O)O)cc2)oc2c1C(=O)CC(C)(C)C2 + CCCCNC(=O)OCC#CI [3-iodo-2-propynyl butylcarbamate (IPBC)] | 104
27 | Cc1cc(C)nc(SCc2nc(-c3ccccc3)no2)n1 + CCCCNC(=O)OCC#CI [3-iodo-2-propynyl butylcarbamate (IPBC)] | 95.5
28 | Cc1c(C)n(C(=O)CSc2nc[nH]n2)c2ccccc12 + CCCCNC(=O)OCC#CI [3-iodo-2-propynyl butylcarbamate (IPBC)] | 80.6
29 | COC1=CC=C(OC)C(=C1)NC(=O)CN2\C=C/N(CC3=CC=C(C)C=C3)C(=O)C2=O + CCCCNC(=O)OCC#CI [3-iodo-2-propynyl butylcarbamate (IPBC)] | 98.6
30 | CC(=O)c1c(C)[nH]c(C(=O)OCC(=O)NCc2ccccc2Cl)c1C + CCCCNC(=O)OCC#CI [3-iodo-2-propynyl butylcarbamate (IPBC)] | 91.4
31 | CSc1ccc(CCNC(=O)CN(C)c2nnc(N3CCCC3=O)s2)cc1 + CCCCNC(=O)OCC#CI [3-iodo-2-propynyl butylcarbamate (IPBC)] | 114
32 | O=C(CNC(=O)c1sc2ccccc2c1Cl)OC1CCOC1=O (stereo unspecified) + CCCCNC(=O)OCC#CI [3-iodo-2-propynyl butylcarbamate (IPBC)] | 96.8
33 | Cc1cccc(NC(=O)CN(C)C(=O)c2cnn(-c3ccccc3F)c2C)c1C + CCCCNC(=O)OCC#CI [3-iodo-2-propynyl butylcarbamate (IPBC)] | 99
34 | Cc1ccc(S(=O)(=O)N(Cc2nc(-c3ccccc3)no2)C(C)C)cc1 + CCCCNC(=O)OCC#CI [3-iodo-2-propynyl butylcarbamate (IPBC)] | 75
35 | CCc1cccc(C)c1NC(=O)Cn1c(C(=O)OC)cc2sccc21 + CCCCNC(=O)OCC#CI [3-iodo-2-propynyl butylcarbamate (IPBC)] | 82.5
36 | CCOC(=O)c1csc(NC(=O)c2ccc3c(c2)NC(=O)C(C)S3)n1 (stereo unspecified) + CCCCNC(=O)OCC#CI [3-iodo-2-propynyl butylcarbamate (IPBC)] | 64.7
37 | CCC(Sc1nc2ccc[nH]c-2n1)C(=O)NCC1CCCO1 (stereo unspecified) + CCCCNC(=O)OCC#CI [3-iodo-2-propynyl butylcarbamate (IPBC)] | 88
38 | CCOC(=O)c1c(NC(=O)c2ccccc2)oc2cccnc12 + CCCCNC(=O)OCC#CI [3-iodo-2-propynyl butylcarbamate (IPBC)] | 77.1
39 | Cc1ccc2c(c1)C(=O)CCCS2(=O)=O + CCCCNC(=O)OCC#CI [3-iodo-2-propynyl butylcarbamate (IPBC)] | 109
40 | CCCN1\C=C(/C(=O)C2=CC(=CC=C12)CC)[S](=O)(=O)C3=CC=C(OC)C=C3 + CCCCNC(=O)OCC#CI [3-iodo-2-propynyl butylcarbamate (IPBC)] | 106
41 | Cc1ccc(S(=O)(=O)CCC(=O)OC(C)C(=O)N(C)c2ccccc2)cc1 (stereo unspecified) + CCCCNC(=O)OCC#CI [3-iodo-2-propynyl butylcarbamate (IPBC)] | 104
42 | CCOC1=CC(=CC=C1O)C\2\C(=C(\N)O\C(=C2C#N)C(C)(C)C)C#N (stereo unspecified) + CCCCNC(=O)OCC#CI [3-iodo-2-propynyl butylcarbamate (IPBC)] | 86.3
43 | COc1cc(Cl)c(C)cc1NC(=O)NCc1noc2ccccc12 + CCCCNC(=O)OCC#CI [3-iodo-2-propynyl butylcarbamate (IPBC)] | 91.7
44 | COc1cc(CC(=O)Nc2nc(CN3CC(C)OC(C)C3)cs2)cc(OC)c1OC (stereo unspecified) + CCCCNC(=O)OCC#CI [3-iodo-2-propynyl butylcarbamate (IPBC)] | 88
45 | O=C(CCc1ccc(S(=O)(=O)N2CCCCCC2)cc1)OCC(=O)N1CCNC1=O + CCCCNC(=O)OCC#CI [3-iodo-2-propynyl butylcarbamate (IPBC)] | 115
46 | COCc1cc(O)n2nc(NC(C)=O)nc2n1 + CCCCNC(=O)OCC#CI [3-iodo-2-propynyl butylcarbamate (IPBC)] | 81.7
